PubChem BioAssay AID652243 | Drosophila RNAi Screening Center – 2013
The screen tested about 24,000 reagents; shown is a random part of those with a known target gene and a result. Of all reagents, 246 (1%) are marked active. 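Plates not normalised; calls are printed but the firefly/Renilla ratio behind them is not deposited; fold cut for lowering reported inconsistently.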 Raw values are not corrected between plates. A plus sign joins genes that one reagent is predicted to hit. The record does not give: the amount of reagent.

Test: 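Fly regulators of androgen-dependent reporter output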 (primary screen)
Cells: Drosophila S2R+ cells
Knock-down reagent: long dsRNA against Drosophila genes
Time to read-out: 72 h (48 h, then 24 h hormone)
Challenge: synthetic androgen R1881 at 10 nM for 24 h
Measured: 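Firefly light from an androgen-responsive reporter and Renilla control light per well, raw and unnormalised, for each of two replicates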
Direction: firefly reporter light: higher = more light from androgen-responsive reporter; Renilla control light: higher = more constitutive control signal (cell number, transfection)
Active means: 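Across duplicate plates, a knock-down whose log firefly/Renilla ratio shifted a set fold down or up from the GFP/LacZ control mean was a hit; the downward cut appears as both 1.5 and 3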
Meaning of the calls: active = hit: reporter lowered or raised; inactive = no hit

no.	target gene	amplicon	firefly reporter light, replicate 1	firefly reporter light, replicate 2	Renilla control light, replicate 1	Renilla control light, replicate 2	Outcome
1	Fancd2	DRSC15208	2.46e5	3.64e5	2.45e6	3.10e6	inactive
2	Fancd2	DRSC22763	9.34e5	1.27e6	1.67e6	2.03e6	inactive
3	HP1b	DRSC18418	2.28e5	2.93e5	2.60e6	3.45e6	inactive
4	HP1b	DRSC29826	5.20e5	4.01e5	1.66e6	1.77e6	inactive
5	CG33258	DRSC09415	2.48e5	2.21e5	4.95e5	3.62e5	inactive
6	CG33258	DRSC23590	6.15e5	5.26e5	3.76e5	4.93e5	inactive
7	CrzR	DRSC09781	1.94e5	2.07e5	2.54e6	2.50e6	inactive
8	CrzR	DRSC09782	1.59e5	1.59e5	1.91e6	1.94e6	inactive
9	IFT46	DRSC02462	1.56e5	1.76e5	1.55e6	1.67e6	inactive
10	CG17806	DRSC15276	77708	86562	4.37e5	6.72e5	inactive
11	Cyp4c3	DRSC16631	62626	47724	5.90e5	2.58e5	inactive
12	Cyp4c3	DRSC23642	3.78e5	2.49e5	5.30e5	4.48e5	inactive
13	CG43355 + sala	DRSC28864	3.07e5	3.73e5	1.02e6	1.04e6	inactive
14	CG5455	DRSC15805	60719	56993	5.43e5	5.00e5	inactive
15	CG5455	DRSC27389	3.06e5	2.89e5	4.82e5	5.51e5	inactive
16	CG7557	DRSC10878	4.51e5	2.36e5	8.46e5	8.14e5	inactive
17	CG7557	DRSC28227	3.93e5	1.06e6	1.33e6	1.93e6	inactive
18	CG14313	DRSC14792	62042	51490	1.05e6	1.12e6	inactive
19	bor	DRSC16915	1.45e5	86752	1.54e6	1.30e6	inactive
20	Usp5	DRSC08244	1.45e5	2.37e5	2.14e6	2.52e6	inactive
21	Usp5	DRSC28531	1.66e5	4.07e5	6.01e5	1.01e6	inactive
22	CG32454	DRSC11652	44161	56269	2.56e5	3.22e5	inactive
23	ste24b	DRSC07315	75503	81924	1.54e6	1.54e6	inactive
24	ste24b	DRSC24340	7.02e5	6.63e5	7.61e5	1.19e6	inactive
25	CG15120	DRSC06542	93733	1.35e5	1.91e6	1.45e6	inactive
26	ash2	DRSC16902	56937	38035	6.08e5	4.79e5	inactive
27	RNF220	DRSC15652	1.25e5	1.53e5	6.75e5	8.75e5	inactive
28	RNF220	DRSC28017	6.76e5	5.08e5	1.81e6	1.09e6	inactive
29	Qsox3	DRSC16096	2.55e5	3.51e5	3.34e6	3.51e6	inactive
30	CG14321	DRSC14800	2.98e5	1.29e5	3.31e6	2.20e6	inactive
31	CG14321	DRSC26935	4.42e5	2.75e5	9.94e5	5.34e5	inactive
32	CG6628	DRSC10679	1.89e5	2.08e5	1.99e6	1.97e6	inactive
33	CG13124	DRSC02220	1.33e6	1.31e6	2.35e6	2.72e6	inactive
34	CG13124	DRSC27328	2.36e5	2.78e5	7.48e5	8.44e5	inactive
35	CG3091	DRSC18274	3.48e5	2.84e5	2.66e6	2.66e6	inactive
36	H	DRSC16692	4.23e5	3.97e5	3.16e6	3.56e6	inactive
37	H	DRSC26618	2.45e5	2.36e5	6.37e5	7.47e5	inactive
38	GstE7	DRSC06677	8.09e5	6.95e5	2.20e6	2.41e6	inactive
39	Dpy-30L1	DRSC02959	1.32e5	1.33e5	1.37e6	1.78e6	inactive
40	Dpy-30L1	DRSC25189	1.23e6	1.18e6	1.62e6	1.52e6	inactive

3 entries from above, set out differently:
Fancd2 [DRSC22763]
- firefly reporter light, replicate 1: 9.34e5
- firefly reporter light, replicate 2: 1.27e6
- Renilla control light, replicate 1: 1.67e6
- Renilla control light, replicate 2: 2.03e6
- Outcome: inactive

HP1b [DRSC18418]
- firefly reporter light, replicate 1: 2.28e5
- firefly reporter light, replicate 2: 2.93e5
- Renilla control light, replicate 1: 2.60e6
- Renilla control light, replicate 2: 3.45e6
- Outcome: inactive

HP1b [DRSC29826]
- firefly reporter light, replicate 1: 5.20e5
- firefly reporter light, replicate 2: 4.01e5
- Renilla control light, replicate 1: 1.66e6
- Renilla control light, replicate 2: 1.77e6
- Outcome: inactive
